The results in this text go back to PubChem BioAssay AID218 (DTP/NCI, 2004).

The list shows only some results of the screen, not a fair sample: it covers a few groups of compounds. Other doses and runs of a compound may be missing. T/C gives the treated animals as a percentage of the vehicle group. Some T/C values are marked as having no survivor count here; that says nothing about deaths at the dose. Schedules are NCI's codes, read here as Q, the interval in days (D) or hours (H), X, the number of doses.

The test system of this test is C57BL/6 mice, Adenocarcinoma 755 sc, tumor weight T/C. Description: NCI In Vivo Anticancer Drug Screen. Data for tumor model Adenocarcinoma 755 (subcutaneous) in C57BL/6 mice. To be noted: T/C endpoint: mean tumor weight, schedule: Q01DX011 (ip), vehicle: saline, evaluation day not shown, higher T/C = larger tumour. The protocol:
The antitumor activity of compounds was measured in mice bearing transplantable tumors. Survival or tumor size were measured and the results are expressed as the measurement made in the treated group (T) divided by the measurement made in the vehicle treated control group (C). The tumor model used in this assay is Adenocarcinoma 755 (subcutaneous) in C57BL/6 mice

On to `CCCCOc1ccc(N(CCCl)CCCl)cc1`, for which the T/C (dose: 10.0 mg/kg/injection) was 56 % of control [survivor count not shown], the T/C (dose: 20.0 mg/kg/injection) is 31 % of control [survivor count not shown] and the T/C (dose: 40.0 mg/kg/injection) was 8 % of control [survivor count not shown].
Take `O=P(Cl)(Cl)N(CCF)CCF`: the T/C was 25 % of control [survivor count not shown] (dose: 0.16 mg/kg/injection); 63 % of control [survivor count not shown] (dose: 0.31 mg/kg/injection); 49 % of control [survivor count not shown] (dose: 0.63 mg/kg/injection); 55 % of control [survivor count not shown] (dose: 1.25 mg/kg/injection); 56 % of control [survivor count not shown] (dose: 19.0 micrograms/kg/injection); 94 % of control [survivor count not shown] (dose: 39.0 micrograms/kg/injection). Besides, the T/C is, setting by setting: (dose: 78.0 micrograms/kg/injection) 55 % of control [survivor count not shown]; (dose: 156.0 micrograms/kg/injection) 61 % of control [survivor count not shown].
